Library screen at single concentrations

Protein sequences, listed by entry. Tags and fused reporters are not part of them. Residues count along the entry.
UniProt P9WPC5, whole entry: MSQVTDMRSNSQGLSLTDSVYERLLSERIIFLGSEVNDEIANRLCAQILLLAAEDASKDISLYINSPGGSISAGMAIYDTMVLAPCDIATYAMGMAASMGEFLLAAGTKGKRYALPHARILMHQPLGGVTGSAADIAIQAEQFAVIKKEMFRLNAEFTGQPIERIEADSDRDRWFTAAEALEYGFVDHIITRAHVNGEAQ
UniProt P9WPC3, whole entry partner: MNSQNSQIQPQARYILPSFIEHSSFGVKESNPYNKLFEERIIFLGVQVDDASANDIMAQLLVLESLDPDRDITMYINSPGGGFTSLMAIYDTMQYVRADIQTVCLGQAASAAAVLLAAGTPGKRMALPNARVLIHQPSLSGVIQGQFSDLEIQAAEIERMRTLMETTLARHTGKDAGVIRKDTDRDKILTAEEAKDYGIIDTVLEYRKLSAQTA
UniProt Q8IDJ8, 1-583: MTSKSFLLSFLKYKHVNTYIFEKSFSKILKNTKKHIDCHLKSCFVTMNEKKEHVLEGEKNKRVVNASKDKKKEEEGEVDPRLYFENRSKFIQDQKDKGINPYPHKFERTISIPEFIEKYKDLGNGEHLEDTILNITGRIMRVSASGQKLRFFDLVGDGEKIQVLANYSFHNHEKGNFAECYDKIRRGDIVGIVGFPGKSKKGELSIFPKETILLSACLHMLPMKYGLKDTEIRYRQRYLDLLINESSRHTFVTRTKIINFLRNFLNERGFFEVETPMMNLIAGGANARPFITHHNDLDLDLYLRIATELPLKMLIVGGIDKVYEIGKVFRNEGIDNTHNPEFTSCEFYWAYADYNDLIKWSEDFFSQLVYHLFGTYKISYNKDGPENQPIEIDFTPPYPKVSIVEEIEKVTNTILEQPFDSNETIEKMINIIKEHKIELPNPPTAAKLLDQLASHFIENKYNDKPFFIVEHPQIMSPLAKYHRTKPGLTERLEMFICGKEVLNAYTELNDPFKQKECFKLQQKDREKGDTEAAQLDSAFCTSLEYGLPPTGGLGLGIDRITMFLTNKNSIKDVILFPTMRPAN
UniProt P9WFT3, whole entry: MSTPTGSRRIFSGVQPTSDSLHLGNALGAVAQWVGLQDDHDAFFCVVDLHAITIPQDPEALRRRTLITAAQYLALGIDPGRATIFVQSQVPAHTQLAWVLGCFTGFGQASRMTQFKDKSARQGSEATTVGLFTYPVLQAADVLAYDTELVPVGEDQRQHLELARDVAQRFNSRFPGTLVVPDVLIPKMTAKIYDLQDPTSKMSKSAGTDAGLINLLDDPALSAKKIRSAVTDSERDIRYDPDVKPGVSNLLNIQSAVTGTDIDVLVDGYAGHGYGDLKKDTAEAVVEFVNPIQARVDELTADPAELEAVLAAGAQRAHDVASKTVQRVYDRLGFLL
UniProt A4I591, 1-473: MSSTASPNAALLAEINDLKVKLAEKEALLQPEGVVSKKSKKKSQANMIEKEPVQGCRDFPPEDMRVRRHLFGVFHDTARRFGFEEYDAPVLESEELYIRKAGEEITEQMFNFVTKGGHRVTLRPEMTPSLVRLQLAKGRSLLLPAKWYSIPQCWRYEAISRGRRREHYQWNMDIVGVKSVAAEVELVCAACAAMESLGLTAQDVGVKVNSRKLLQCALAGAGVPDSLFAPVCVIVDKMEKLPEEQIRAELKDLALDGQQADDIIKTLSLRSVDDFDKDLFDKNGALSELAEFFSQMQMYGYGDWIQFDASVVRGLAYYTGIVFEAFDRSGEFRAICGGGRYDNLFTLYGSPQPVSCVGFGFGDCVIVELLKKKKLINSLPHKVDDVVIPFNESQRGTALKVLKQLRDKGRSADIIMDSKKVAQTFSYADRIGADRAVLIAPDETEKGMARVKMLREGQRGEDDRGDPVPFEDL
UniProt Q4DA54, 1-478: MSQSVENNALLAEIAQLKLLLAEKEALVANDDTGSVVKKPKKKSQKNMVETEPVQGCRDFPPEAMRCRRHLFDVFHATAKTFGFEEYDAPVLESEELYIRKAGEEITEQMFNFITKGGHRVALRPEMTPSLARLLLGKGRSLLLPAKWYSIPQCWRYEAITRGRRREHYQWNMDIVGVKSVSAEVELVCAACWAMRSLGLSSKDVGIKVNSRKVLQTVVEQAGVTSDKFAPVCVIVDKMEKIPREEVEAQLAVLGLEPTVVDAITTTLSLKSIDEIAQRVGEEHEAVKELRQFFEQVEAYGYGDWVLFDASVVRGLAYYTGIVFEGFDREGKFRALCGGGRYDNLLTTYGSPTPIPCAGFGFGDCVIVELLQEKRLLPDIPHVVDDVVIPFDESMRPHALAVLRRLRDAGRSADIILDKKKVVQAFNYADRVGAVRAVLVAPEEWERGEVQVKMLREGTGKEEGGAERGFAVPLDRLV

ClpP1P2: 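Protease assay of ClpP1P2, read by the AMC dye that it sets free. Target: ClpP1P2, Mycobacterium tuberculosis (UniProt P9WPC5 and UniProt P9WPC3). Tested at 50 µM. Direction is inferred from only a few compounds that gave an IC50; most scored high, so higher reads as stronger inhibition. Most other retested compounds had strongly negative values. Of about 69,000 compounds tested this way, about 10 (0.015%) reached 50% or more in at least one test.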
PfKRS1: 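Lysine-tRNA ligase, Plasmodium falciparum 3D7 (UniProt Q8IDJ8). Enzyme assay of the cytosolic lysyl-tRNA synthetase in 384-well plates, read by luminescence. Compounds at 30 µM. Direction is inferred from only a few compounds that gave an IC50; most scored high, so higher reads as stronger inhibition. About 69,000 compounds were tested under these conditions; 0.071% (about 49) showed 50% or more at least once.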
MtTrpRS: 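Enzyme assay of tryptophanyl-tRNA synthetase; the read-out is not stated. Target: Tryptophan-tRNA ligase, Mycobacterium tuberculosis (UniProt P9WFT3). Concentration: 10 µM. Higher most likely means stronger inhibition; the record gives no direction and few retests gave an IC50. Of about 65,000 compounds tested this way, about 64 (0.098%) reached 50% or more in at least one test.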
LiHisRS: 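Enzyme assay of histidyl-tRNA synthetase; the read-out is not stated. Target: Histidine-tRNA ligase, Leishmania infantum (UniProt A4I591). Concentration: 30 µM. Higher reads as stronger inhibition (inferred: compounds with an IC50 in retests scored well above the rest). The assay is labelled LdHisRS but filed under L. infantum. About 69,000 compounds were tested under these conditions; 0.6% (about 410) showed 50% or more at least once.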
TcHisRS: 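Enzyme assay of histidyl-tRNA synthetase; the read-out is not stated. Target: Histidine-tRNA ligase, Trypanosoma cruzi CL Brener (UniProt Q4DA54). Compounds at 30 µM. Higher reads as stronger inhibition (inferred: compounds with an IC50 in retests scored well above the rest). Of about 69,000 compounds tested this way, about 31 (0.045%) reached 50% or more in at least one test.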
Leishmania in macrophages: 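Cell assay of Leishmania donovani living inside macrophages; the read-out is not stated. Tested at 30 µM. The record gives no direction; compounds that gave an IC50 in retests scored well above the rest, so higher reads as stronger inhibition. About 69,000 compounds were tested under these conditions; 1.5% (about 1,000) showed 50% or more at least once.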

Each number is a percent effect as filed. How 0% and 100% were set is not recorded. Most values in the screen are low, and negative values occur. This is an unselected part of the compounds tested.

CC(C)CN1CC(c2nc(-c3ccc(F)cc3)c[nH]2)CC1=O (centres undefined) read ClpP1P2: -3.21%; PfKRS1: 2.794%; MtTrpRS: -1.064%; LiHisRS: 0%; TcHisRS: 2.717%; Leishmania in macrophages: 9.537%. For COCCNC(=O)NCc1cc(-c2ccncc2)n(C2CCCC2)n1 the result was ClpP1P2: -10.16%; PfKRS1: 2.511%; MtTrpRS: 3.732%; LiHisRS: 17.39%; TcHisRS: 11%; Leishmania in macrophages: -11.75%. With c1nc(N2CCN(Cc3nnnn3C3CC3)CC2)c2sccc2n1 the screen gave ClpP1P2: 5.117%; PfKRS1: 2.685%; MtTrpRS: -4.413%; LiHisRS: 17.24%; TcHisRS: 4.712%; Leishmania in macrophages: 17.98%. With COc1ccccc1C(C)CC(=O)N1CCCS1(=O)=O (centres undefined) the screen gave ClpP1P2: -8.89%; PfKRS1: 2.039%; MtTrpRS: 3.974%; LiHisRS: 12.9%; TcHisRS: 6.173%; Leishmania in macrophages: -12.68%.

CC(C)c1n[nH]c(C2CN(C(=O)c3cc(C(N)=O)cs3)CCO2)n1 (centres undefined) read ClpP1P2: 1.255%; PfKRS1: 1.786%; MtTrpRS: -4.066%; LiHisRS: 0.8772%; TcHisRS: 1.734%; Leishmania in macrophages: -10.14%. CCCN1CCC(C(=O)NCCN(CC)c2ccccc2C)CC1 read ClpP1P2: 10.77%; PfKRS1: 5.198%; MtTrpRS: 4.876%; LiHisRS: 16.67%; TcHisRS: 3.448%; Leishmania in macrophages: 22.31%. Cc1nc(C)n(CC2CN(CC(=O)Nc3ccncc3)CCO2)n1 (centres undefined) gave ClpP1P2: -18.78%; PfKRS1: 2.187%; MtTrpRS: 0.6365%; LiHisRS: 11.11%; TcHisRS: -0.4464%; Leishmania in macrophages: 6.063%. Result for O=C(CCCOc1ccc(F)cc1)N1CCCC(n2cccn2)C1 (centres undefined) was ClpP1P2: 17.96%; PfKRS1: 6.288%; MtTrpRS: 1.173%; LiHisRS: 8%; TcHisRS: 2.642%; Leishmania in macrophages: -5.51%.

For COCC1c2c(cnn2C)CCN1Cc1cccc(C)c1.O=C(O)C(F)(F)F.O=C(O)C(F)(F)F (centres undefined) the result was Leishmania in macrophages: 2.951%. For CCOCCn1c(=O)[nH]c2cc(C(=O)N(C)Cc3nc(C)cs3)ccc21 the result was ClpP1P2: -0.31%; PfKRS1: 5.319%; MtTrpRS: -0.5418%; LiHisRS: 21.15%; TcHisRS: 5%; Leishmania in macrophages: 20.59%. For [H][C@@]12CN(Cc3cccnc3)CCO[C@]1([H])CN(C(=O)c1ccncn1)C2 the result was Leishmania in macrophages: 10.09%. Result for O=C(CCC1CCCO1)NCc1ccccc1Cn1cncn1 (centres undefined) was ClpP1P2: 4.023%; PfKRS1: 0.2249%; MtTrpRS: -1.355%; LiHisRS: 16.67%; TcHisRS: 5.202%; Leishmania in macrophages: 18.89%.

CN(C)[C@@H]1CN(Cc2ccc(O)cc2)C[C@H]1c1cn(C)c2ccccc12.Cl gave Leishmania in macrophages: 5.597%. Result for COC(=O)Cn1ccc(NS(=O)(=O)c2ccc3c(c2)CCC3)n1 was ClpP1P2: -0.6981%; PfKRS1: 0.6784%; MtTrpRS: 5.957%; LiHisRS: 30%; TcHisRS: 1.064%; Leishmania in macrophages: -5.456%.

2 of the entries, repeated:

- CCCN1CCC(C(=O)NCCN(CC)c2ccccc2C)CC1 : ClpP1P2: 10.77%; PfKRS1: 5.198%; MtTrpRS: 4.876%; LiHisRS: 16.67%; TcHisRS: 3.448%; Leishmania in macrophages: 22.31%
- [H][C@@]12CN(Cc3cccnc3)CCO[C@]1([H])CN(C(=O)c1ccncn1)C2 : Leishmania in macrophages: 10.09%

Source: ChEMBL document CHEMBL3988442, “University of Dundee, Small-Polar-MMV Screening Library” (2021).